# Record: PubChem BioAssay AID1259425 (University of Nebraska Medical Center, 2018)
# Screen: 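Seek colon cancer weak points whose silencing resembles KSR1 loss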 (primary screen)
# Cells: HCT116 human colon cancer cells
# Knock-down reagent: siRNA pool against human genes, 50 nM siRNA
# Measurement: 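After 50 nM siRNA pool, branched-DNA assay measures six marker transcripts per well, minus blank, normalised to the geometric mean of two housekeeping transcripts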
# Reading the numbers: BNIP3L mRNA: higher = more BNIP3L transcript after knockdown; NDRG1 mRNA: higher = more NDRG1 transcript after knockdown; BNIP3 mRNA: higher = more BNIP3 transcript after knockdown; ALDOC mRNA: higher = more ALDOC transcript after knockdown; ACSL5 mRNA: higher = more ACSL5 transcript after knockdown
# In all, the deposit lists about 14,000 reagents; below is an unselected part. No sequences are given here. Not stated in the record: the time to read-out.
Target gene,"BNIP3L mRNA, set 1","NDRG1 mRNA, set 1","BNIP3 mRNA, set 1","ALDOC mRNA, set 1","ACSL5 mRNA, set 1"
UTP14C (UTP14C small subunit processome component),0.096,0.219,0.363,0.0338,0.234
ADM2 (adrenomedullin 2),0.137,0.179,0.248,0.0162,0.217
NEUROD2 (neuronal differentiation 2),0.171,0.383,0.215,0.0327,0.27
CCDC77 (coiled-coil domain containing 77),0.142,0.106,0.228,0.0806,0.168
DAXX (death domain associated protein),0.064,0.0968,0.296,0.00774,0.25
PRDM6 (PR/SET domain 6),0.116,0.125,0.179,0.0215,0.178
LMLN (leishmanolysin like peptidase),0.0657,0.233,0.132,0.0213,0.126
AKR1C3 (aldo-keto reductase family 1 member C3),0.106,0.119,0.307,0.00922,0.189

2 entries from above, sorted by “ACSL5 mRNA, set 1”, ascending:
Target gene,"BNIP3L mRNA, set 1","NDRG1 mRNA, set 1","BNIP3 mRNA, set 1","ALDOC mRNA, set 1","ACSL5 mRNA, set 1"
LMLN (leishmanolysin like peptidase),0.0657,0.233,0.132,0.0213,0.126
PRDM6 (PR/SET domain 6),0.116,0.125,0.179,0.0215,0.178

Additional records:
Target gene,"BNIP3L mRNA, set 1","NDRG1 mRNA, set 1","BNIP3 mRNA, set 1","ALDOC mRNA, set 1","ACSL5 mRNA, set 1"
RUFY3 (RUN and FYVE domain containing 3),0.182,0.195,0.267,0.0344,0.252
CYP27B1 (cytochrome P450 family 27 subfamily B member 1),0.0756,0.463,0.281,0.0329,0.26
SNX11 (sorting nexin 11),0.137,0.114,0.228,0.0335,0.0718
AHNAK (AHNAK nucleoprotein),0.165,0.101,0.249,0.0297,0.308
CDK3 (cyclin dependent kinase 3),0.168,0.128,0.322,0.00516,0.216
RPS26 (ribosomal protein S26),0.0949,0.124,0.342,0.0184,0.0495
TNFRSF25 (TNF receptor superfamily member 25),0.106,0.237,0.478,0.0171,0.0417
FKTN (fukutin),0.0718,0.114,0.204,0.0218,0.167
C22orf31 (chromosome 22 open reading frame 31),0.131,0.393,0.406,0.0248,0.368
GPR22 (G protein-coupled receptor 22),0.332,0.392,0.954,0.0581,0.195
UPK1B (uroplakin 1B),0.0877,0.118,0.2,0.0308,0.103
USP39 (ubiquitin specific peptidase 39),0.117,0.46,0.288,0.066,0.263
